Source: patent US5578573A (priority 1995, dated 1996)
No end group written: not given here.

Test: general procedure: Boc solid-phase peptide synthesis; MBHA; dicyclohexylcarbodiimide
Settings: whole synthesis, 215 nm

HCKFWW-NH2
final HPLC purity: greater than 90% pure
